## Library screening results

Amino acid sequences for entries named in this document (tags omitted).
UniProt E9BF75, entry or part of it: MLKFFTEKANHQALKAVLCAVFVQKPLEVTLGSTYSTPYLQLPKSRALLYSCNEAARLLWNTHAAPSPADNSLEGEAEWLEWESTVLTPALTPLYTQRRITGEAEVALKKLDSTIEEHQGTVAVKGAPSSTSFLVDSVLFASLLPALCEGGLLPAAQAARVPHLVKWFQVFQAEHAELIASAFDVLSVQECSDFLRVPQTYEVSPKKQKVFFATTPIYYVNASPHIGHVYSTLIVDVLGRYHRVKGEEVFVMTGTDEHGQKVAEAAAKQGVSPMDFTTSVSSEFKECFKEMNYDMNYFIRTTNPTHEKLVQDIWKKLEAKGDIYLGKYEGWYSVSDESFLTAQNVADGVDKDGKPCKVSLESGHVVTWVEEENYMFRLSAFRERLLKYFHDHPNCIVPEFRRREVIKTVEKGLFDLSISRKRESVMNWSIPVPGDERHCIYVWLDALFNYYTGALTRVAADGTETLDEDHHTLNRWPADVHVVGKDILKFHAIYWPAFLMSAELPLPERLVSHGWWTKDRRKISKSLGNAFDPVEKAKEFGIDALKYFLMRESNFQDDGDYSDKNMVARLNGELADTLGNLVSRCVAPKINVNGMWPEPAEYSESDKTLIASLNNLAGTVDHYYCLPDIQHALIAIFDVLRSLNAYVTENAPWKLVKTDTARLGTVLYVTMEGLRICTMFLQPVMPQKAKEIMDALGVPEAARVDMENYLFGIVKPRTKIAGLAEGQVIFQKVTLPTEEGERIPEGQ

Mtb heat-shock: 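Assay on Mycobacterium tuberculosis, filed only as a heat shock assay from Cornell; the read-out is not stated. The concentration is filed as 10 mM, unlikely as a test dose, so the dose is not known. The record gives no direction; compounds that gave an IC50 in retests scored well above the rest, so higher reads as stronger inhibition. About 69,000 compounds were tested under these conditions; 1.4% (about 930) showed 50% or more at least once.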
Mtb growth Cornell: 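Whole-cell assay for inhibitors of Mycobacterium tuberculosis growth, labelled Cornell in the record; the read-out is not stated. The concentration is filed as 10 mM, unlikely as a test dose, so the dose is not known. The record gives no direction; compounds strong in two other growth screens of this library score well above the rest, so higher reads as stronger inhibition. Size under these conditions: about 53,000 compounds, about 900 of them at 50% or above in at least one test.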
LdMetRS: 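Primary screen of methionyl-tRNA synthetase; the read-out is not stated. Target: Methionyl-tRNA synthetase (putative), Leishmania donovani (UniProt E9BF75). The test concentration is not given. Values are per cent inhibition. Of about 68,000 compounds tested this way, about 24 (0.035%) reached 50% or more in at least one test.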

Results are percentages, as filed. The record does not define 0% and 100%; most values in the screen are far below 50% and negative numbers occur (in some assays of this library far below -100). The compounds are a random part of those screened. A dash means the value is not listed here; it may have been measured.

compound	Mtb heat-shock	Mtb growth Cornell	LdMetRS
Cc1cc(C(=O)N2CCc3nnc(N)cc3C2)c(C)n1-c1ccccc1	7.519	11.51	15.76
O=C(N1CCOCC1)[C@@]12CCO[C@@H]1CCN(CC1CCCCC1)C2	-	-	2.075
Cc1[nH]nc2ncc(C(=O)N3CCN(C(C)(C)C)CC3)cc12	3.233	-	13.92
Cn1ncc2c(N3CCS(=O)(=O)CC3)nc(C3CCCC3)nc21	-0.3777	-13.36	2.688
CCN1C[C@@H]2CN(S(=O)(=O)c3cccs3)C[C@@H]2C1=O	-	-	7.778
COc1cc(CNCCc2nc(C)cs2)cc2c1OCCO2.Cl	0.5352	-	-
COc1cc(CNCc2c(C)nn(C)c2N(C)C)ccc1C	13.05	13.2	5.229
[H][C@@]12C[C@H](C(=O)NCc3ccccc3)[C@@]([H])(CN(S(=O)(=O)N(C)C)C1)O2	-32.32	0.9441	-
CN(Cc1cc(C2CC2)[nH]n1)Cc1cc2ccc(F)cc2[nH]c1=O	-11.48	0.009148	4.469
CC(NC(=O)NCC1(c2ccccc2)CCC1)c1nncn1C (centres unmarked)	-7.023	24.72	13.39
Cc1cccc(N2CCN(C(=O)CN3CCN(CCO)CC3)CC2)c1	-23.73	48.41	22.5
CCc1cccc(NC(=O)CCN2CC=C(c3cnn(C)c3)CC2)c1	-2.093	-	13.17
CCOc1ccc2nc(CN3CCOC(CN)C3)ccc2c1 (centres unmarked)	16.64	-	18.32
O=C(NCCCN1CCCC1=O)c1nc(-c2ccc3cc[nH]c3c2)no1	-7.667	12.15	9.394
O=C(c1cccc(F)c1F)N1CCn2c(nnc2C(F)(F)F)C1	-4.99	24.85	13.32
CN1CCCC2(CCN(C(=O)Cc3cc4c(cc3Cl)OCCO4)C2)C1=O (centres unmarked)	-7.585	10.35	3.621
O=C1[C@@H]2CN(C3CCOCC3)C[C@H]2CCN1CC1CC1	-	-	8.889
O=C(NCCc1cccs1)[C@H]1CO[C@H]2CCN(C3CCC3)C[C@H]2C1	-	-	21.19
Cc1nsc(N2CCCN(C(=O)NCc3cccnc3)CC2)n1	27.54	-48.9	12.05
OCC(O)CN(CCN1CCOCC1)Cc1ccco1 (centres unmarked)	12.84	-	12.27
CCOc1ccc(CNC(=O)N2CCCC(CO)C2)cc1F (centres unmarked)	-11.19	-	6.044
CCn1cc(CN2C[C@H]3CC[C@@H]2CN(C(=O)C2CCC2)C3)cn1	-	-	12.24
CC(=O)NCc1ccc(C(=O)N2CCCc3c(F)ccc(C)c32)o1	-9.554	-27.86	16.72
COc1c(C2CCCN2C(=O)c2cc(C3CC3)on2)c(C)nn1C (centres unmarked)	1.066	23.35	17.06
COCCN(C)C[C@@H]1CN(C(=O)c2cccc(C#N)c2)C[C@@H]1CO	-3.059	-17.74	1.69
O=C1COC2(CCN(C(=O)c3ccco3)CC2)CN1Cc1ccccn1	-	-	19.87
CN1CCC2(COCCN(Cc3cccc(C#N)c3)C2)C1 (centres unmarked)	-	-	7.853
CNc1nc(N2CCN(CC=C(C)C)C(CCO)C2)nc2c1CCC2 (centres unmarked)	-13.26	14.65	11.42
CSCc1cccc(S(=O)(=O)N2CCCCC2)c1	-2.686	-	-11.31
CN(Cc1cc(C(C)(C)C)n[nH]1)C(=O)c1c[nH]nc1-c1cccc(F)c1	-12.17	14.95	21.14
COc1ccccc1C1CC(=O)Nc2c1c(=O)[nH]n2C(C)C (centres unmarked)	-14.75	7.683	7.507
CCC(C)(N)c1nc(=O)c(C)c(C)[nH]1 (centres unmarked)	-7.311	-	9.774
CS(=O)(=O)NCCCNCc1cc(F)ccc1Br	9.031	6.408	10.14
COc1ccc(-c2cnc(CN3CCCC3Cn3cccn3)o2)cc1 (centres unmarked)	6.284	-	13.86
COC(=O)c1ccc(C2CC(=O)Oc3cc(C)[nH]c(=O)c32)cc1 (centres unmarked)	-10.13	-	9.544
Clc1ccc(CN2CCN(Cn3nccc3-c3cccnc3)CC2)s1	-28.3	-	5.205
CCNc1cc2c(nn1)CCN(C(=O)Cc1ccc(C)nc1)C2	16.68	-	12.22
CC(C)C(=O)NS(=O)(=O)c1ccc(F)c(C(F)(F)F)c1	-8.144	-	12.18
CCC1=N[C@@]2(CC[C@@H]3CN(C(=O)NC(C)C)C[C@@H]32)C(=O)N1C	-	-	12.38
O=C(O)C(F)(F)F.c1cc(CNCC2Cn3nncc3CO2)co1 (centres unmarked)	-3.673	-41.08	-
Cc1cnn(CC2CCCN2CC(=O)N(C)Cc2ccsc2)c1 (centres unmarked)	21.74	0.3351	19.57
CN(Cc1cc(Br)cn1C)C(=O)Cc1cccnc1	-147	-	12.99
Cc1nc(CCNC(C)c2ccc3c(c2)OCCCO3)cs1 (centres unmarked)	-14.14	-5.311	9.399
CCc1[nH]c(C2(N)CCCCC2)nc(=O)c1C	-16.08	-84.25	13.05
O=C(C1CCCC1)N1CCOC(c2nc(-c3ncccn3)no2)C1 (centres unmarked)	1.686	-8.158	18.75
CC(NCc1ccc(OCC(N)=O)cc1)c1ccc(Cl)cc1Cl.Cl (centres unmarked)	-2.137	22.4	-

Repeated from the top, 5 entries:

compound,Mtb heat-shock,Mtb growth Cornell,LdMetRS
Cc1cc(C(=O)N2CCc3nnc(N)cc3C2)c(C)n1-c1ccccc1,7.519,11.51,15.76
O=C(N1CCOCC1)[C@@]12CCO[C@@H]1CCN(CC1CCCCC1)C2,-,-,2.075
Cc1[nH]nc2ncc(C(=O)N3CCN(C(C)(C)C)CC3)cc12,3.233,-,13.92
Cn1ncc2c(N3CCS(=O)(=O)CC3)nc(C3CCCC3)nc21,-0.3777,-13.36,2.688
CCN1C[C@@H]2CN(S(=O)(=O)c3cccs3)C[C@@H]2C1=O,-,-,7.778

Measurements from “University of Dundee, Small-Polar-MMV Screening Library” (2021), ChEMBL document CHEMBL3988442.